Measurements: the supplement of paper PMC4604168 (melanoma cell lines)
The list shows a part of the results. Repeats are few or missing, and single values can be far off.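 Imaging used 1,536-well plates; nuclei positive for cleaved PARP by antibody were divided by total DNA-stained nuclei to yield the apoptosis fraction. Doses for screening kept most cells viable, and cell lines differ markedly in resting and induced cleaved-PARP levels.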

Assays:
Test in all cases: cleaved PARP positive nuclei fraction relative to DMSO control; melanoma cells; higher = more apoptosis
Settings in all cases: library dose: low library concentration; 72 h
CBRC034 = tested on: CBRC034 (line from a melanoma biopsy)
COLO792 = tested on: COLO792
COLO800 = tested on: COLO800
COLO829 = tested on: COLO829
G361 = tested on: G361
IPC-298 = tested on: IPC-298
IST-MEL1 = tested on: IST-MEL1
LB2518-MEL = tested on: LB2518-MEL
LOXIMVI = tested on: LOXIMVI
MEL-HO = tested on: MEL-HO

Row | Compound | cleaved PARP positive nuclei fraction (CBRC034) [%] | cleaved PARP positive nuclei fraction (COLO792) [%] | cleaved PARP positive nuclei fraction (COLO800) [%] | cleaved PARP positive nuclei fraction (COLO829) [%] | cleaved PARP positive nuclei fraction (G361) [%] | cleaved PARP positive nuclei fraction (IPC-298) [%] | cleaved PARP positive nuclei fraction (IST-MEL1) [%] | cleaved PARP positive nuclei fraction (LB2518-MEL) [%] | cleaved PARP positive nuclei fraction (LOXIMVI) [%] | cleaved PARP positive nuclei fraction (MEL-HO) [%]
1 | Cn1sc(=O)n(Cc2ccccc2)c1=O + CNC(=O)c1cc(Oc2ccc(NC(=O)Nc3ccc(Cl)c(C(F)(F)F)c3)cc2)ccn1 [sorafenib] (first compound 0.4 µM, partner dose 0.4 µM) | 179 | 77 | 103 | 77.7 | 70.2 | 43.1 | 124 | 96.9 | 59 | 78.9
2 | C[C@@H](N)c1ccc(C(=O)Nc2ccnc3[nH]ccc23)cc1 + Clc1ccc(Nc2nnc(Cc3ccncc3)c3ccccc23)cc1 [vatalanib] (first compound 0.4 µM, partner dose 2 µM) | 261 | 95.6 | 225 | 74.9 | 125 | 45.6 | 39.8 | 138 | 181 | 247
3 | CCN(CC)CCNC(=O)c1c(C)[nH]c(/C=C2\C(=O)Nc3ccc(F)cc32)c1C [sunitinib] + Cc1nc(Nc2ncc(C(=O)Nc3c(C)cccc3Cl)s2)cc(N2CCN(CCO)CC2)n1 [dasatanib] (first compound 0.4 µM, partner dose 0.004 µM) | 75.8 | 93.5 | 115 | 71.7 | 73.9 | 88.8 | 38.6 | 61.4 | 162 | 99.8
4 | Cn1sc(=O)n(Cc2ccccc2)c1=O + CN1CCN(c2ccc3nc(-c4c(N)c5c(F)cccc5[nH]c4=O)[nH]c3c2)CC1 [Dovitinib] (first compound 0.4 µM, partner dose 0.1 µM) | 71.1 | 75.6 | 86.3 | 104 | 89.4 | 109 | 153 | 24.7 | 36.9 | 65.8
5 | Cn1sc(=O)n(Cc2ccccc2)c1=O + NC(=O)c1ccc(N(C(N)=O)c2c(F)cccc2F)nc1-c1ccc(F)cc1F [VX702] (first compound 0.4 µM, partner dose 0.4 µM) | 89.4 | 125 | 73.4 | 96.8 | 96.5 | 158 | 260 | 38.5 | 83.4 | 77.5
6 | COc1ccc(C2=N[C@@H](c3ccc(Cl)cc3)[C@@H](c3ccc(Cl)cc3)N2C(=O)N2CCNC(=O)C2)c(OC(C)C)c1 [Nutlin-3] + C#Cc1cccc(Nc2ncnc3cc(OCCOC)c(OCCOC)cc23)c1 [erlotinib] (first compound 0.1 µM, partner dose 0.8 µM) | 102 | 94.3 | 115 | 79.9 | 90 | 91.9 | 247 | 325 | 86.3 | 46.2
7 | CN(c1ncccc1CNc1nc(Nc2ccc3c(c2)CC(=O)N3)ncc1C(F)(F)F)S(C)(=O)=O + O=C(O)[C@@H]1[O][Sb](=[O])([O][Sb]2(=[O])[O][C@H]([C@H](O)CO)[C@H](O)[C@H](C(=O)O)[O]2)[O][C@H]([C@H](O)CO)[C@@H]1O [stibogluconate] (first compound 0.08 µM, partner dose 2 µM) | 78.4 | 233 | 88.9 | 90 | 88.5 | 87.5 | 58.3 | 99.8 | 142 | 62.8
8 | CCCCCCCCc1ccc(CCC(N)(CO)CO)cc1 [fingolimod] + O=C(O)c1ccc2c(c1)nc(Nc1cccc(Cl)c1)c1ccncc12 [CX4945] (first compound 2 µM, partner dose 0.4 µM) | 37.3 | 104 | 26.3 | 123 | 69 | 27.4 | 37.9 | 46.5 | 60.3 | 37.2
9 | CC1(C)CCC(c2ccc(Cl)cc2)=C(CN2CCN(c3ccc(C(=O)NS(=O)(=O)c4ccc(N[C@H](CCN5CCOCC5)CSc5ccccc5)c(S(=O)(=O)C(F)(F)F)c4)cc3)CC2)C1 + CN(c1ncccc1CNc1nc(Nc2ccc3c(c2)CC(=O)N3)ncc1C(F)(F)F)S(C)(=O)=O [PF562271] (first compound 0.4 µM, partner dose 0.08 µM) | 298 | 662 | 256 | 82.4 | 194 | 171 | 56.5 | 347 | 205 | 170
10 | NC(=O)c1ccc(N(C(N)=O)c2c(F)cccc2F)nc1-c1ccc(F)cc1F + COc1ccc(Cl)c(Nc2nc3ccccc3nc2NS(=O)(=O)c2cccc(NC(=O)C(C)(C)N)c2)c1 [XL147] (first compound 0.4 µM, partner dose 0.8 µM) | 70.6 | 104 | 73.2 | 157 | 203 | 172 | 44.7 | 236 | 109 | 122
11 | CCCCCCCCc1ccc(CCC(N)(CO)CO)cc1 [fingolimod] + CC(C)C[C@H](NC(=O)[C@H](Cc1ccccc1)NC(=O)c1cnccn1)B(O)O [Bortezomib] (first compound 2 µM, partner dose 0.001 µM) | 43.3 | 103 | 114 | 167 | 602 | 47.8 | 59.9 | 181 | 108 | 32.3
12 | CS(=O)(=O)c1ccc(C(=O)Nc2ccc(Cl)c(-c3ccccn3)c2)c(Cl)c1 [vismodegib] + C=CCNC1=C2C[C@@H](C)C[C@H](OC)[C@H](O)[C@@H](C)/C=C(\C)[C@H](OC(N)=O)[C@@H](OC)/C=C\C=C(/C)C(=O)NC(=CC1=O)C2=O [Tanespimycin] (first compound 1 µM, partner dose 0.002 µM) | 137 | 107 | 186 | 129 | 24.2 | 31 | 102 | 23.9 | 93.4 | 16.6
13 | CS(=O)(=O)c1ccc(C(=O)Nc2ccc(Cl)c(-c3ccccn3)c2)c(Cl)c1 [vismodegib] + CNC(=O)c1cc(Oc2ccc(NC(=O)Nc3ccc(Cl)c(C(F)(F)F)c3)cc2)ccn1 [sorafenib] (first compound 1 µM, partner dose 0.4 µM) | 26.6 | 64.9 | 165 | 90.2 | 131 | 60.9 | 143 | 108 | 130 | 179
14 | CC(=O)O[C@@]12CO[C@@H]1C[C@H](O)[C@@]1(C)C(=O)[C@H](O)C3=C(C)[C@@H](OC(=O)[C@H](O)[C@@H](NC(=O)OC(C)(C)C)c4ccccc4)C[C@@](O)([C@@H](OC(=O)c4ccccc4)[C@H]21)C3(C)C [Docetaxel] + CNC(=O)c1cc(Oc2ccc(NC(=O)Nc3ccc(Cl)c(C(F)(F)F)c3)cc2)ccn1 [sorafenib] (first compound 0.0001 µM, partner dose 0.4 µM) | 401 | 565 | 475 | 368 | 830 | 311 | 227 | 241 | 68.6 | 350
15 | CCN(CC)CCNC(=O)c1c(C)[nH]c(/C=C2\C(=O)Nc3ccc(F)cc32)c1C [sunitinib] + Nc1nc(F)nc2c1ncn2[C@@H]1O[C@H](CO)[C@@H](O)[C@@H]1O [fludarabine] (first compound 0.4 µM, partner dose 0.2 µM) | 142 | 125 | 121 | 55.4 | 225 | 90.7 | 121 | 206 | 43 | 178
16 | CCN(CC)CCNC(=O)c1c(C)[nH]c(/C=C2\C(=O)Nc3ccc(F)cc32)c1C [sunitinib] + CC(=O)c1c(C)c2cnc(Nc3ccc(N4CCNCC4)cn3)nc2n(C2CCCC2)c1=O [palbociclib] (first compound 0.4 µM, partner dose 0.04 µM) | 35.4 | 52.9 | 46.9 | 44.4 | 46 | 205 | 133 | 30.3 | 55.4 | 213
17 | NC1(c2ccc(-c3nc4ccn5c(=O)[nH]nc5c4cc3-c3ccccc3)cc2)CCC1 + C#Cc1cccc(Nc2ncnc3cc(OCCOC)c(OCCOC)cc23)c1 [erlotinib] (first compound 0.4 µM, partner dose 0.8 µM) | 277 | 221 | 71.2 | 130 | 109 | 170 | 134 | 121 | 105 | 147
18 | CCN(CC)CCNC(=O)c1c(C)[nH]c(/C=C2\C(=O)Nc3ccc(F)cc32)c1C [sunitinib] + COc1ccc(Cl)c(Nc2nc3ccccc3nc2NS(=O)(=O)c2cccc(NC(=O)C(C)(C)N)c2)c1 [XL147] (first compound 0.4 µM, partner dose 0.8 µM) | 34.4 | 153 | 190 | 91.2 | 151 | 87.7 | 141 | 62.6 | 47.8 | 137
19 | COc1ccc(C2=N[C@@H](c3ccc(Cl)cc3)[C@@H](c3ccc(Cl)cc3)N2C(=O)N2CCNC(=O)C2)c(OC(C)C)c1 [Nutlin-3] + CN(c1ncccc1CNc1nc(Nc2ccc3c(c2)CC(=O)N3)ncc1C(F)(F)F)S(C)(=O)=O [PF562271] (first compound 0.1 µM, partner dose 0.08 µM) | 150 | 148 | 135 | 96.2 | 94.3 | 42.9 | 125 | 332 | 163 | 132
20 | Cn1cnc2c(F)c(Nc3ccc(Br)cc3Cl)c(C(=O)NOCCO)cc21 [selumetinib] + Cn1sc(=O)n(Cc2ccccc2)c1=O [TDZD-8] (first compound 0.015 µM, partner dose 0.4 µM) | 110 | 112 | 294 | 39.6 | 110 | 178 | 83.2 | 173 | 191 | 92.5
21 | CC(=O)O[C@@]12CO[C@@H]1C[C@H](O)[C@@]1(C)C(=O)[C@H](O)C3=C(C)[C@@H](OC(=O)[C@H](O)[C@@H](NC(=O)OC(C)(C)C)c4ccccc4)C[C@@](O)([C@@H](OC(=O)c4ccccc4)[C@H]21)C3(C)C [Docetaxel] + Nc1cccc2c1CN(C1CCC(=O)NC1=O)C2=O [lenalidomide] (first compound 0.0001 µM, partner dose 1 µM) | 119 | 577 | 401 | 162 | 492 | 310 | 300 | 76.1 | 96.9 | 185

Single records (already shown). Order of values: cleaved PARP positive nuclei fraction (CBRC034) [%]	cleaved PARP positive nuclei fraction (COLO792) [%]	cleaved PARP positive nuclei fraction (COLO800) [%]	cleaved PARP positive nuclei fraction (COLO829) [%]	cleaved PARP positive nuclei fraction (G361) [%]	cleaved PARP positive nuclei fraction (IPC-298) [%]	cleaved PARP positive nuclei fraction (IST-MEL1) [%]	cleaved PARP positive nuclei fraction (LB2518-MEL) [%]	cleaved PARP positive nuclei fraction (LOXIMVI) [%]	cleaved PARP positive nuclei fraction (MEL-HO) [%]
CCN(CC)CCNC(=O)c1c(C)[nH]c(/C=C2\C(=O)Nc3ccc(F)cc32)c1C [sunitinib] + COc1ccc(Cl)c(Nc2nc3ccccc3nc2NS(=O)(=O)c2cccc(NC(=O)C(C)(C)N)c2)c1 [XL147] (first compound 0.4 µM, partner dose 0.8 µM) is listed with 34.4	153	190	91.2	151	87.7	141	62.6	47.8	137
CC(=O)O[C@@]12CO[C@@H]1C[C@H](O)[C@@]1(C)C(=O)[C@H](O)C3=C(C)[C@@H](OC(=O)[C@H](O)[C@@H](NC(=O)OC(C)(C)C)c4ccccc4)C[C@@](O)([C@@H](OC(=O)c4ccccc4)[C@H]21)C3(C)C [Docetaxel] + CNC(=O)c1cc(Oc2ccc(NC(=O)Nc3ccc(Cl)c(C(F)(F)F)c3)cc2)ccn1 [sorafenib] (first compound 0.0001 µM, partner dose 0.4 µM) is listed with 401	565	475	368	830	311	227	241	68.6	350
